PubChem BioAssay AID720505 | Drosophila RNAi Screening Center – 2013

- Aim: 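Fly regulators or components of the CRAC channel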 (primary screen)
- Cells: Drosophila S2R+ cells
- Knock-down reagent: long dsRNA against Drosophila genes
- Conditions: thapsigargin (2 µM) in calcium-free buffer to empty internal stores, then 2 mM calcium added back
- Measured: 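Stores emptied by 2 µM thapsigargin without calcium, then 2 mM calcium re-added; fluo-4 fluorescence followed by FLIPR in 384-well plates, per-well averaged endpoint, raw; two screen passes, some wells retested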
- Direction: calcium signal and retest calcium signal: higher = more calcium entry after store depletion
- Call rule: 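Knock-downs counted as hits when calcium entry dropped relative to STIM1 positive and Rho1 negative controls present on each plate; roughly 1500 genes called, with reductions of differing size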
- Meaning of the calls: active = called as lowering calcium entry; inactive = not called
The screen tested about 20,000 reagents; shown is a random part of those with a known target gene and a result. Over the whole deposit, about 2,100 (10%) were called active. 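Raw plate signals without normalisation; calls rest on control-based scores that were not deposited; replicate 2 separates called from uncalled poorly.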 The numbers tell different reagents against one gene apart. A plus sign joins genes that one reagent is predicted to hit. Not given: the amount of reagent, the time to read-out.

target | dsRNA no. | calcium signal, replicate 1 | calcium signal, replicate 2 | retest calcium signal, replicate 1 | retest calcium signal, replicate 2 | call
CG30349 | 1 | 62.1 | 121 | – | – | active
CG30349 | 2 | 64.8 | 105 | – | – | active
7SLRNA:CR42652 + 7SLRNA:CR32864 | 1 | 69.2 | 109 | – | – | inactive
COX5A | 1 | 157 | 102 | – | – | inactive
ph-d | 1 | 76.7 | 129 | – | – | inactive
ph-d | 2 | 104 | 142 | – | – | inactive
bab2 | 1 | 96.7 | 152 | – | – | inactive
bab2 | 2 | 106 | 129 | – | – | inactive
vas (retired record) | 1 | 66.6 | 148 | – | – | inactive
JMJD4 | 1 | 82.6 | 111 | – | – | inactive
Pgam5 | 1 | 96.5 | 136 | – | – | inactive
Cyp313a4 | 1 | 200 | 100 | – | – | inactive
kar | 1 | 115 | 112 | – | – | inactive
CG15025 | 1 | 143 | 139 | – | – | inactive
kuk | 1 | 155 | 237 | – | – | inactive
TpnC41C | 1 | 71.7 | 154 | – | – | inactive
Sema2b | 1 | 139 | 92.8 | – | – | inactive
Sema2b | 2 | 64.8 | 143 | – | – | inactive
Sema2b | 3 | 127 | 116 | – | – | inactive
CG14567 | 1 | 91.1 | 175 | – | – | inactive
Atg18a | 1 | 121 | 84.6 | – | – | inactive
CG6527 | 1 | 84 | 121 | – | – | inactive
CG4293 | 1 | 96.5 | 146 | – | – | inactive
Cyp4ae1 | 1 | 146 | 156 | – | – | inactive
dnc | 1 | 121 | 135 | – | – | inactive
dnc | 2 | 118 | 144 | – | – | inactive
dnc | 3 | 105 | 122 | – | – | inactive
dnc | 4 | 118 | 120 | – | – | inactive
dnc | 5 | 54.8 | 97.6 | – | – | active
CG6972 | 1 | 119 | 110 | – | – | inactive
Strica | 1 | 134 | 161 | – | – | inactive
CG14312 | 1 | 163 | 157 | – | – | inactive
Odj | 1 | 140 | 240 | – | – | inactive
CG34320 (retired record) | 1 | – | – | – | – | inactive
Cyp6a23 | 1 | 141 | 129 | – | – | inactive
esn | 1 | 63 | 57.2 | – | – | active
esn | 2 | 129 | 154 | – | – | inactive
esn | 3 | 116 | 134 | – | – | inactive
CG31788 | 1 | 204 | 79.4 | – | – | inactive
CG18870 | 1 | 211 | 134 | – | – | inactive
Atg1 | 1 | 91.6 | 120 | – | – | inactive
Atg1 | 2 | 69.3 | 105 | – | – | inactive
rod | 1 | 64.2 | 95.4 | – | – | active
side-V | 1 | 160 | 231 | 9531 | 176 | inactive
side-V | 2 | 145 | 158 | – | – | inactive
side-V | 3 | 65.7 | 257 | – | – | inactive
Prx1 | 1 | 85.9 | 141 | – | – | inactive
Coq3 | 1 | 102 | 75.5 | – | – | inactive
park + Targ3 | 1 | 112 | 73.8 | – | – | inactive
NdufV3 | 1 | 99 | 91.9 | – | – | inactive
isoQC | 1 | 149 | 201 | – | – | inactive
Pfdn1 | 1 | 146 | 89.9 | – | – | inactive
Xe7 | 1 | 79.7 | 167 | – | – | inactive
Cen | 1 | 93.6 | 82.3 | – | – | inactive
CG5783 | 1 | 129 | 82 | – | – | inactive
BomS3 | 1 | 115 | 80.9 | – | – | inactive
CG13408 | 1 | 159 | 168 | – | – | inactive
CG33453 | 1 | 80.8 | 115 | – | – | inactive
ND-23 | 1 | 87.3 | 189 | – | – | inactive
Su(dx) | 1 | 144 | 284 | – | – | inactive
Cpr50Cb | 1 | 102 | 190 | – | – | inactive
NimC1 | 1 | 103 | 125 | – | – | inactive
CG1701 | 1 | 136 | 177 | – | – | inactive
t-Grip91 | 1 | 145 | 85.6 | – | – | inactive
CG34129 | 1 | 251 | 112 | – | – | inactive
l(1)G0020 | 1 | 248 | 80 | – | – | inactive
CG8245 | 1 | 193 | 203 | 82.7 | 101 | inactive
VAChT | 1 | 92.1 | 147 | – | – | inactive
agt | 1 | 152 | 180 | – | – | inactive
moody | 1 | 83.8 | 141 | – | – | inactive
bcn92 | 1 | 85.6 | 126 | – | – | inactive
CG13028 | 1 | 88.2 | 202 | – | – | inactive
Ir7c | 1 | 59.2 | 299 | – | – | active
CG2100 | 1 | 142 | 166 | – | – | inactive
resilin | 1 | 150 | 84.9 | – | – | inactive
resilin | 2 | 158 | 169 | – | – | inactive
CG33181 | 1 | 245 | 98.6 | – | – | inactive
CG33181 | 2 | 98.1 | 165 | – | – | inactive
RnrS | 1 | 148 | 126 | – | – | inactive
CG15650 | 1 | 174 | 81.9 | – | – | inactive
Rpp25 | 1 | 125 | 193 | – | – | inactive
Or47b | 1 | 126 | 174 | – | – | inactive
CG13088 | 1 | 157 | 170 | – | – | inactive
Tob | 1 | 118 | 132 | – | – | inactive
mRF1 | 1 | 87.3 | 90.5 | – | – | inactive
CG13893 | 1 | 104 | 95.5 | – | – | inactive
CG7857 | 1 | 109 | 133 | – | – | inactive
CG3987 | 1 | 106 | 126 | – | – | inactive
RtGEF | 1 | 121 | 106 | – | – | inactive
RtGEF | 2 | 89.1 | 268 | – | – | inactive
Uhg3 | 1 | 98 | 134 | – | – | inactive
CG15312 | 1 | 172 | 140 | – | – | inactive
CG6567 + CG4565 | 1 | 156 | 81.5 | – | – | inactive
vri | 1 | 210 | 76.3 | – | – | inactive
vri | 2 | 90.9 | 117 | – | – | inactive
nyo | 1 | 94.9 | 87.8 | – | – | inactive
nyo | 2 | 87.9 | 122 | – | – | inactive
CG13386 | 1 | 140 | 138 | – | – | inactive
da | 1 | 171 | 182 | – | – | inactive
PH4alphaNE3 | 1 | 74 | 128 | – | – | inactive
Cyp28d2 | 1 | 158 | 76 | – | – | inactive
CG18558 | 1 | 205 | 127 | – | – | inactive
CG18558 | 2 | 139 | 96.5 | – | – | inactive
Rh3 | 1 | 148 | 187 | – | – | inactive
CG34136 | 1 | 109 | 4196 | – | – | inactive
Caf1-180 | 1 | 135 | 64.1 | – | – | active

5 entries from above, arranged by “calcium signal, replicate 2”, low to high.
target | dsRNA no. | calcium signal, replicate 1 | calcium signal, replicate 2 | retest calcium signal, replicate 1 | retest calcium signal, replicate 2 | call
dnc | 4 | 118 | 120 | – | – | inactive
dnc | 3 | 105 | 122 | – | – | inactive
dnc | 1 | 121 | 135 | – | – | inactive
dnc | 2 | 118 | 144 | – | – | inactive
Cyp4ae1 | 1 | 146 | 156 | – | – | inactive
